In all, about 1,300 compounds went through this assay and about 270 (21%) were called active.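 How the source made its calls: active means dose-dependent rise or fall in viability, either side of zero, with half-maximal concentration at or below a set limit; inconclusive means flat curve at 30 to 70% viability loss, or poor fit; inactive means flat within 30% either way, or potency beyond limit.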 Some of the results follow. Measured potencies and affinities stand elsewhere.

The nature of this experiment: A375 melanoma cell viability reduction, dose response, counter-screen for MITF modulator project, cherry-pick samples, set 2 (AID 540335).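 Further: A375 human melanoma cells which do not depend on MITF; 0% = median of neutral control wells and 100% = double that signal.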 The conditions noted are these: CellTiter-Glo ATP luminescence, 24 h; at 35 µM (top of the series). A general note: Counterscreens check selectivity or assay interference.
For `O=C(CSc1nnnn1-c1ccc(O)cc1)Nc1cccc(S(=O)(=O)N2CCCC2)c1`, the activity change, negative = decreased viability was inactive: 3.61%. On to `CC1CCN(CC2C(=O)O[C@@H]3C[C@@]4(C)CCC[C@H](C)C4=C[C@H]23)CC(C)(C)C1` (some centres not stated), for which the activity change, negative = decreased viability was inactive: -37.1%. Consider `O=C(CCl)N1CCN(S(=O)(=O)c2ccc3c(c2)CCC3)CC1`, for which the activity change, negative = decreased viability was inactive: -14%.

For the compound `OCc1ccc(N=Nc2ccccc2)cc1`, the activity change, negative = decreased viability was inactive: 8.78%. Take `Cc1ccc(NC(=O)/C=C/c2ccc([N+](=O)[O-])s2)c(C)c1`: the activity change, negative = decreased viability is inactive: 21.2%. In the case of `COc1cccc(-c2nnc3sc(-c4cccs4)nn23)c1`, the activity change, negative = decreased viability was inactive: -4.18%. Under `Nc1c(N(CCC2=CCCCC2)C(=O)COc2ccc([N+](=O)[O-])cc2)c(=O)[nH]c(=O)n1Cc1ccccc1` stands inactive: -29%; under `CC(C)c1ccc(C(=O)Nc2cccnc2)cc1`, inactive: 7.53%; under `Fc1ccccc1-c1nc(-c2ccncc2)no1`, inactive: 10.2%. Take `Cc1ccc(NC(=O)CCC(=O)N/N=C/c2ccc([N+](=O)[O-])o2)cc1C`: the activity change, negative = decreased viability is inactive: -3.7%.

Turning to `CN1CCN(c2ccccc2NC(=O)c2ccc([N+](=O)[O-])o2)CC1`, the activity change, negative = decreased viability was inactive: -26.5%. As to `CN(C)c1ccc(/C=C2\SC(=O)N(CCc3nnc(N)s3)C2=O)cc1`, the activity change, negative = decreased viability was inactive: 10.5%. For `Cc1cc(C(=O)CSc2nnc3ccccn23)c(C)n1-c1ccccc1`, the activity change, negative = decreased viability is inactive: -0.919%.

As to `O=C(CCCN1C(=O)S/C(=C\c2ccccc2)C1=O)NNC(=O)c1ccccc1O`, the activity change, negative = decreased viability was inactive: -5.72%. As for `O=C(N/N=C\c1ccc([N+](=O)[O-])s1)c1cncc(Br)c1`, the activity change, negative = decreased viability was inactive: -26.1%. Next, `COc1ccccc1NS(=O)(=O)c1cccc(C(=O)N/N=C/c2ccc([N+](=O)[O-])o2)c1`: inactive: -30.3%. As to `COC1=C(c2ccccc2)C(=O)c2ccccc2C1=O`, the activity change, negative = decreased viability is inactive: -38.7%.

Regarding `CCOC(=O)c1c(C)[nH]c(C)c1C(=O)COC(=O)c1ccc([N+](=O)[O-])s1`, the activity change, negative = decreased viability was inactive: -21.8%. In the case of `CN(C)c1ccc(CNc2ccccn2)cc1`, the activity change, negative = decreased viability was inactive: 4.92%.

As to `CCN=c1scc(-c2ccco2)n1/N=C/c1ccc(O)cc1`, the activity change, negative = decreased viability is inactive: -2.35%. Consider `COc1cccc(NC(=O)c2cc3ccccc3cc2OC)c1`, for which the activity change, negative = decreased viability was inactive: 5.97%. On to `O=C(NC1CCCCC1)c1cc2cc(Br)ccc2o1`, for which the activity change, negative = decreased viability was inactive: 4.15%. As to `O=S(=O)(CC(CN1CCCCC1)N1CCCCC1)c1ccc2ccccc2c1` (configuration not stated), the activity change, negative = decreased viability was inactive: -11.5%. Next, `O=C(N/N=C/c1ccccn1)c1cc([N+](=O)[O-])cc([N+](=O)[O-])c1`: inactive: -6.72%; `COc1ccc(N/N=C/c2c(C(=O)O)ccc3ccccc23)cc1`: inactive: -34.8%; `COc1ccc(NC(=O)c2cc(F)cc(F)c2)cc1Cl`: inactive: -3.4%. As for `CCc1ccc(-c2cc(C(=O)Nn3cnnc3)c3ccccc3n2)cc1`, the activity change, negative = decreased viability was inactive: -19.7%.

On to `O=C(Cc1cccs1)NCc1ccc(Cl)cc1Cl`, for which the activity change, negative = decreased viability is inactive: 0.365%.

Take `Nc1ncnc(Sc2ncccn2)c1[N+](=O)[O-]`: the activity change, negative = decreased viability was inactive: -23.9%.

`O=C(CC(=O)c1ccccc1)Nc1ccccc1`: the activity change, negative = decreased viability was inactive: 13.8%.

For `O=C(Nc1ccc(Cl)cc1)Nc1cccc(C(=O)O)c1`, the activity change, negative = decreased viability is inactive: 8.31%.

On to `BrC(=C\c1ccccc1)/C=N/n1cnnc1`, for which the activity change, negative = decreased viability was inactive: -34.2%.

For `O=C(Nc1nc2ccccc2s1)c1ccccc1[N+](=O)[O-]`, the activity change, negative = decreased viability was inactive: -6.68%.

As for `O=C(Cn1ncc(Cl)c(Cl)c1=O)c1ccc(Cl)cc1`, the activity change, negative = decreased viability was inactive: 84.6%. Next, `Cc1ccccc1-c1nc(CN2CCC(C(=O)NCCCN3CCCC(C)C3)CC2)c(C)o1` (configuration not stated): inactive: -2.83%; `Cc1cc2oc(=O)cc(C)c2cc1NC(=O)CCC(=O)O`: inactive: 8.56%; `COc1ccc(-c2nc(-c3ccncc3)no2)cc1OC`: inactive: -1.96%. For the compound `c1ccc(-n2ncc3c(NCc4cccs4)ncnc32)cc1`, the activity change, negative = decreased viability was inactive: 12.3%. Regarding `C=CC[n+]1c(-c2ccc(C)cc2)csc1Nc1ccc(NC(C)=O)cc1`, the activity change, negative = decreased viability was inactive: -2.79%. Under `Cc1ccc(-c2cn3cc(C)ccc3n2)cc1` stands inactive: -19.5%. `COC(=O)C1=C(CN2CCCc3ccccc32)NC(=O)NC1c1ccc(F)cc1` (configuration not stated): the activity change, negative = decreased viability is inactive: 0.771%. With `O=C1c2ccccc2C(=O)N1CCSc1ccccc1`, the activity change, negative = decreased viability is inactive: -0.093%.

As to `COc1ccc(-c2cc(-c3ccccc3O)[nH]n2)cc1OC`, the activity change, negative = decreased viability is inactive: 7.71%. In the case of `CN(CC(=O)N1CCCCCC1)S(=O)(=O)c1ccccc1`, the activity change, negative = decreased viability is inactive: 3.34%. Turning to `CCN1CCN(C2=C(NS(=O)(=O)c3ccc(Br)cc3)C(=O)c3ccccc3C2=O)CC1`, the activity change, negative = decreased viability was inactive: -15.8%. Take `COc1cc(C(=O)N/N=C(\c2ccccc2)c2ccccn2)cc(OC)c1OC`: the activity change, negative = decreased viability is inactive: -25.7%. Turning to `CC(=O)Nc1cccc2c1Cc1ccccc1-2`, the activity change, negative = decreased viability was inactive: 7.8%. `COc1cc2ccccc2cc1C(=O)Nc1ccc(N2CCN(C)CC2)cc1`: the activity change, negative = decreased viability was inactive: -1.65%. Next, `O=C(Nc1ccc(N2CCN(C(=O)c3ccc(Cl)cc3)CC2)cc1)c1ccc([N+](=O)[O-])o1`: inactive: 20.7%. With `Cc1cc(/C(N)=N/OC(=O)c2ccc(Cl)cc2)no1`, the activity change, negative = decreased viability was inactive: 7.61%. For `Cc1cc(N2CCOCC2)n2ncc(-c3ccccc3Cl)c2n1`, the activity change, negative = decreased viability is inactive: 10.9%. With `O=C(CSc1ccc(Cl)cc1)NC1CCCC1`, the activity change, negative = decreased viability is inactive: 8.2%. In the case of `O=c1c2ccccc2cnn1CCOc1ccccc1`, the activity change, negative = decreased viability was inactive: -29.7%.

Consider `c1ccc(-c2cn3nc4c(nc3n2)CCCC4)cc1`, for which the activity change, negative = decreased viability was inactive: -31.4%.

For the compound `Cc1cc2oc3ccc(NCCC4CCCN4C)cc3c(=O)c2cc1C` (configuration not stated), the activity change, negative = decreased viability was inactive: -96.9%. Next, `CC(C)(C)C1CCC(OC(=O)CN2CCCCC2)CC1` (configuration not stated): inactive: 8.7%; `COc1cc2c(c(OC)c1OC)-c1ccc(N(C)CC(OC)OC)c(=O)cc1[C@@H](NC(C)=O)CC2`: inactive: 5.25%. `CCOC(=O)c1ccc2nc(C)c(CCC(C)=O)c(Cl)c2c1`: the activity change, negative = decreased viability is inactive: 13.2%. For `CCCCOC(=O)Nc1ccc2c(C)cc(=O)oc2c1`, the activity change, negative = decreased viability is inactive: 7.51%. Next, `COc1ccc(S(=O)(=O)N2CCCCC2)cc1NC(=O)c1ccc([N+](=O)[O-])o1`: inactive: -19.1%; `Cc1nc(SCC(=O)Nc2ccc(CN3CCCC3)cc2)c2c(C)c(C)sc2n1`: inactive: -4.46%; `CN(CCC#N)C(=O)COC(=O)c1ccccc1C(=O)c1ccc(Cl)c([N+](=O)[O-])c1`: inactive: 54.4%. `Cc1cc(-n2c(C)cc(C(=O)CCl)c2C)no1`: the activity change, negative = decreased viability is inactive: -29.3%. `CCCCNc1nc(=S)n(-c2ccccc2)c(C)c1C(C)=O`: the activity change, negative = decreased viability is inactive: 8.62%. Take `Cc1cccnc1NC(=O)NC(=O)c1ccc(C(C)(C)C)s1`: the activity change, negative = decreased viability was inactive: 3.2%. Under `Cc1ccccc1-n1ncc2c([N+](=O)[O-])cc([N+](=O)[O-])cc21` stands inactive: -0.302%. Under `N#CC1=C(c2ccccc2)/C(=C/c2ccccc2)OC1=O` stands inactive: -19.5%; under `C/C(=N\Nc1nccnc1Cl)c1ccc(O)c(C)c1`, inactive: 6.7%. Under `Oc1ccc(CNc2ccccc2F)c2cccnc12` stands inactive: -3.58%; under `CCN(C(=O)c1ccco1)c1nc(-c2ccc(OC)cc2)cs1`, inactive: -7.94%.

For `O=C(N/N=C\c1cc(Br)ccc1O)c1ccc(S(=O)(=O)N2CCCCC2)cc1`, the activity change, negative = decreased viability is inactive: -15.3%. On to `COc1ccc(C(=O)NC(=O)Nc2cc(C)ccn2)cc1`, for which the activity change, negative = decreased viability is inactive: -17.4%. For the compound `N#C/C(=C\C=C\c1ccccc1[N+](=O)[O-])C(=O)NCc1ccccc1`, the activity change, negative = decreased viability is inactive: 0.185%. As for `O=C1c2cc(F)ccc2-n2c1nc1ccccc1c2=O`, the activity change, negative = decreased viability was inactive: -37.3%.

On to `CN(C)C1CCN(Cc2cc(COCc3ccccc3)c3cccnc3c2O)C1` (configuration not stated), for which the activity change, negative = decreased viability was inactive: -37.2%. Turning to `CC1CC(C)CN(C(=O)/C=C/c2ccc([N+](=O)[O-])s2)C1` (configuration not stated), the activity change, negative = decreased viability was inactive: -6.24%. `O=C1/C(=C/c2ccccc2[N+](=O)[O-])COc2ccccc21`: the activity change, negative = decreased viability is inactive: 116%. `Cc1nn2c(N)c(-c3ccccc3)cnc2c1-c1ccccc1`: the activity change, negative = decreased viability is inactive: 3.49%. Regarding `O=C(O)c1ccc(Nc2nc3c(s2)CCCC3)cc1`, the activity change, negative = decreased viability is inactive: 3.63%. On to `COc1ccc(NC(=O)c2cc3ccccc3oc2=O)c(OC)c1`, for which the activity change, negative = decreased viability was inactive: 4.04%. Consider `CN(C)c1ccc(C2=NOC(CN3C(=O)c4ccccc4S3(=O)=O)C2)cc1` (configuration not stated), for which the activity change, negative = decreased viability is inactive: 1.39%.

Regarding `OCC1OC(n2cnc3c(NCc4ccco4)ncnc32)C(O)C1O` (configuration not stated), the activity change, negative = decreased viability is inactive: -25.3%. `COc1ccc(/C=N/Nc2ccccn2)cc1OC`: the activity change, negative = decreased viability was inactive: 1.22%.

Turning to `COc1ccccc1OCC(=O)N/N=C/C=C/c1ccc([N+](=O)[O-])o1`, the activity change, negative = decreased viability is inactive: -17.1%.

For the compound `COc1ccc(/C=C2\Sc3ccc(C(=O)NCCN4CCCCCC4)cc3N(C)C2=O)cc1`, the activity change, negative = decreased viability was inactive: -19.8%. As for `O=C(c1ccc([N+](=O)[O-])s1)N1CCN(c2ccccn2)CC1`, the activity change, negative = decreased viability was inactive: 2.25%. As for `CCOC(=O)c1c(C)oc2c(F)c(F)c(F)c(F)c2c1=O`, the activity change, negative = decreased viability is inactive: -17.5%. Next, `O=C(N/N=C/c1cc(Cl)ccc1O)c1ccncc1`: inactive: -31%; `Cc1ccc(C(CNS(=O)(=O)c2ccc(Br)cc2)N2CCN(C)CC2)cc1` (configuration not stated): inactive: -15.8%; `COc1ccccc1/C=C/C=N/NC(=O)c1cccs1`: inactive: 5.11%. In the case of `COc1cccc(/C=N/Nc2ncnc3c2ncn3Cc2ccccc2)c1O`, the activity change, negative = decreased viability was inactive: -33.2%. For `CNc1oc(/C=C/c2cccc(OC)c2)nc1C#N`, the activity change, negative = decreased viability was inactive: 13.1%. Consider `CC(C)C(=O)Nc1ccc2nn(-c3ccc(F)cc3)nc2c1`, for which the activity change, negative = decreased viability is inactive: 9.97%. Under `Cc1ccc(-c2cn3nc(C)c(C)nc3n2)cc1` stands inactive: -18.3%; under `COC(=O)c1ccc(/C=N/Nc2nc(C)c(C)s2)cc1`, inactive: -2.98%; under `CS(=O)(=O)c1ccc2nc(NC(=O)c3ccccc3)sc2c1`, inactive: -10.8%.

For `COc1cccc(-c2ccc3c(N)c(C(=O)NC4CC4)sc3n2)c1`, the activity change, negative = decreased viability is inactive: 13.8%.

For the origin of these results see PubChem BioAssay AID540335 (Broad Institute, 2011).
